Assay results reported in the supplement of paper PMC4635364.
Structures can show the parent of a compound that is named as a salt. The list shows a part of the results. This data set is noisy: repeats of one test often differ as much as different tests do.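 Human fetal ventral-midbrain neural progenitor line ReNCell VM, differentiated without mitogens. Images stained for doublecortin (early neurons) or tyrosine hydroxylase (dopaminergic neurons) were scored by blinded raters against untreated wells (0 = no change). Repeats and both raters were averaged, and compounds averaging 2 or higher were picked as hits for retesting.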

Columns and labels:
[1] = system: ReNCell VM; assay: neuronal differentiation score (DCX+ cell fraction vs untreated, manual image score) (score (-3 to 3)); higher = more neuronal differentiation; conditions: 2 uM, 2 weeks
[2] = system: ReNCell VM; assay: dopaminergic neuron differentiation score (TH+ cell fraction vs untreated, manual image score) (score (0 to 3)); higher = more TH+ dopaminergic neuron differentiation; conditions: 2 uM, 4 weeks, BDNF 10 ng/ml + GDNF 10 ng/ml

## O=C1NCN(c2ccccc2)C12CCN(CCCC(c1ccc(F)cc1)c1ccc(F)cc1)CC2 [Fluspirilene]
[1]; library: LOPAC
  neuronal differentiation score: inactive: 0
[2]; library: LOPAC
  dopaminergic neuron differentiation score: inactive: 0

## CCn1cc(C(=O)O)c(=O)c2cc(F)c(N3CCN(C)CC3)cc21
[1]; library: Spectrum
  neuronal differentiation score: inactive: 0
[2]; library: Spectrum
  dopaminergic neuron differentiation score: inactive: 0

## NCCCCC(=O)O
[1]; library: Spectrum
  neuronal differentiation score: inactive: 0
[2]; library: Spectrum
  dopaminergic neuron differentiation score: inactive: 0

## CC(O)(C(=O)Nc1ccc(S(=O)(=O)c2ccccc2)cc1)C(F)(F)F (centres undefined)
[1]; library: Tocriscreen
  neuronal differentiation score: inactive: 0
[2]; library: Tocriscreen
  dopaminergic neuron differentiation score: inactive: 0

## Cc1cc(OC(=O)c2c(C)cc(O)cc2O)cc(O)c1C(=O)O
[1]; library: Spectrum
  neuronal differentiation score: inactive: 0
[2]; library: Spectrum
  dopaminergic neuron differentiation score: inactive: 0

## O=C(/C=C/c1ccc(O)c(O)c1)O[C@H](Cc1ccc(O)c(O)c1)C(=O)O
[1]; library: Spectrum
  neuronal differentiation score: inactive: 0
[2]; library: Spectrum
  dopaminergic neuron differentiation score: inactive: 0

## N[C@@H](C(=O)N[C@@H]1C(=O)N2C(C(=O)O)=C(Cl)CC[C@H]12)c1ccccc1 [Loracarbef]
[1]; library: Prestwick
  neuronal differentiation score: inactive: 0
[2]; library: Prestwick
  dopaminergic neuron differentiation score: inactive: 0

## COc1ccc(-c2cc(=O)c3c(OC)c(OC)c(OC)c(OC)c3o2)cc1
[1]; library: Spectrum
  neuronal differentiation score: inactive: 0
[2]; library: Spectrum
  dopaminergic neuron differentiation score: inactive: 0

## NS(=O)(=O)c1cccc2c1c([N+](=O)[O-])cc1nc(O)c(O)nc12
[1]; library: Tocriscreen
  neuronal differentiation score: inactive: 0
[2]; library: Tocriscreen
  dopaminergic neuron differentiation score: inactive: 0

## NC[C@@H]1O[C@@H](O[C@H]2[C@H](O)[C@@H](O[C@H]3O[C@H](CO)[C@@H](O)[C@H](N)[C@H]3O)[C@H](N)C[C@@H]2N)[C@@H](O)[C@H](O)[C@H]1O [Kanamycin A sulfate]
[1]; library: Prestwick
  neuronal differentiation score: inactive: 0
[2]; library: Prestwick
  dopaminergic neuron differentiation score: inactive: 0

## C[C@]12CCC(=O)C=C1C=C[C@@H]1[C@@H]2CC[C@@]2(C)[C@H]1CC[C@@]21CCC(=O)O1 [Canrenone]
[1]; library: Prestwick
  neuronal differentiation score: inactive: 1
[2]; library: Prestwick
  dopaminergic neuron differentiation score: inactive: 0

## CC(C)c1nc(N(C)S(C)(=O)=O)nc(-c2ccc(F)cc2)c1/C=C/[C@@H](O)C[C@@H](O)CC(=O)O
[1]; library: Spectrum
  neuronal differentiation score: inactive: 0
[2]; library: Spectrum
  dopaminergic neuron differentiation score: inactive: 0

## O=c1c(-c2cc(O)c(O)c(O)c2)coc2cc(O)c(O)c(O)c12
[1]; library: Spectrum
  neuronal differentiation score: inactive: 0
[2]; library: Spectrum
  dopaminergic neuron differentiation score: inactive: 0

## CCN1CCC[C@H]1CNC(=O)c1c(OC)ccc(Br)c1OC [Remoxipride hydrochloride]
[1]; library: Tocriscreen
  neuronal differentiation score: inactive: 0
[2]; library: Tocriscreen
  dopaminergic neuron differentiation score: inactive: 1

## C#C[C@]1(O)CC[C@H]2[C@@H]3CCc4cc(OC5CCCC5)ccc4[C@H]3CC[C@@]21C
[1]; library: Spectrum
  neuronal differentiation score: inactive: 1
[2]; library: Spectrum
  dopaminergic neuron differentiation score: inactive: 0

## Nc1ncn(C2OC(CO)C(O)C2O)c(=O)n1 (centres undefined) [Azacytidine-5]
[1]; library: Prestwick
  neuronal differentiation score: inactive: 0
[2]; library: Prestwick
  dopaminergic neuron differentiation score: inactive: 0

## Cc1cc(C(=O)NNCc2ccccc2)no1 [Isocarboxazid]
[1]; library: Prestwick
  neuronal differentiation score: inactive: 0
[2]; library: Prestwick
  dopaminergic neuron differentiation score: inactive: 0
